Source: publication PMC12316392
No constants are given. Whether binding was seen depends on the method and setting. Binding seen in cells or lysates may run through a third protein. Some results given as binding are weak or reduced against the parent protein; the word gives no strength. Where a sequence is shown, tags or fusion partners need not be part of it. Blank lines part the entries; values can stand above or below the molecule they belong to.

Protein sequences, listed by entry. Tags and fused reporters are not part of them.
UniProt P49336: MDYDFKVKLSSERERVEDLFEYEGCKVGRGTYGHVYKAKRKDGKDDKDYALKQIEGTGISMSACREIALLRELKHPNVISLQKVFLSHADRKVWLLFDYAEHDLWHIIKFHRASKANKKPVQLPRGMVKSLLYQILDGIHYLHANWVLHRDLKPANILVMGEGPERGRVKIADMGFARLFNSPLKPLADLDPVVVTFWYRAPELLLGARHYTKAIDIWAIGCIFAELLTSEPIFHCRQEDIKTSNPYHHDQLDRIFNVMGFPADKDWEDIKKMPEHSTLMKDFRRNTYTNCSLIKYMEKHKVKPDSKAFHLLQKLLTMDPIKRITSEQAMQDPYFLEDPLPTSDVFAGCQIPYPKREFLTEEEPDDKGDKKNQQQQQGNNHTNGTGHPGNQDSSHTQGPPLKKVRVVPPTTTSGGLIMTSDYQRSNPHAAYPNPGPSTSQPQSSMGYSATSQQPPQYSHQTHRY
UniProt Q15648: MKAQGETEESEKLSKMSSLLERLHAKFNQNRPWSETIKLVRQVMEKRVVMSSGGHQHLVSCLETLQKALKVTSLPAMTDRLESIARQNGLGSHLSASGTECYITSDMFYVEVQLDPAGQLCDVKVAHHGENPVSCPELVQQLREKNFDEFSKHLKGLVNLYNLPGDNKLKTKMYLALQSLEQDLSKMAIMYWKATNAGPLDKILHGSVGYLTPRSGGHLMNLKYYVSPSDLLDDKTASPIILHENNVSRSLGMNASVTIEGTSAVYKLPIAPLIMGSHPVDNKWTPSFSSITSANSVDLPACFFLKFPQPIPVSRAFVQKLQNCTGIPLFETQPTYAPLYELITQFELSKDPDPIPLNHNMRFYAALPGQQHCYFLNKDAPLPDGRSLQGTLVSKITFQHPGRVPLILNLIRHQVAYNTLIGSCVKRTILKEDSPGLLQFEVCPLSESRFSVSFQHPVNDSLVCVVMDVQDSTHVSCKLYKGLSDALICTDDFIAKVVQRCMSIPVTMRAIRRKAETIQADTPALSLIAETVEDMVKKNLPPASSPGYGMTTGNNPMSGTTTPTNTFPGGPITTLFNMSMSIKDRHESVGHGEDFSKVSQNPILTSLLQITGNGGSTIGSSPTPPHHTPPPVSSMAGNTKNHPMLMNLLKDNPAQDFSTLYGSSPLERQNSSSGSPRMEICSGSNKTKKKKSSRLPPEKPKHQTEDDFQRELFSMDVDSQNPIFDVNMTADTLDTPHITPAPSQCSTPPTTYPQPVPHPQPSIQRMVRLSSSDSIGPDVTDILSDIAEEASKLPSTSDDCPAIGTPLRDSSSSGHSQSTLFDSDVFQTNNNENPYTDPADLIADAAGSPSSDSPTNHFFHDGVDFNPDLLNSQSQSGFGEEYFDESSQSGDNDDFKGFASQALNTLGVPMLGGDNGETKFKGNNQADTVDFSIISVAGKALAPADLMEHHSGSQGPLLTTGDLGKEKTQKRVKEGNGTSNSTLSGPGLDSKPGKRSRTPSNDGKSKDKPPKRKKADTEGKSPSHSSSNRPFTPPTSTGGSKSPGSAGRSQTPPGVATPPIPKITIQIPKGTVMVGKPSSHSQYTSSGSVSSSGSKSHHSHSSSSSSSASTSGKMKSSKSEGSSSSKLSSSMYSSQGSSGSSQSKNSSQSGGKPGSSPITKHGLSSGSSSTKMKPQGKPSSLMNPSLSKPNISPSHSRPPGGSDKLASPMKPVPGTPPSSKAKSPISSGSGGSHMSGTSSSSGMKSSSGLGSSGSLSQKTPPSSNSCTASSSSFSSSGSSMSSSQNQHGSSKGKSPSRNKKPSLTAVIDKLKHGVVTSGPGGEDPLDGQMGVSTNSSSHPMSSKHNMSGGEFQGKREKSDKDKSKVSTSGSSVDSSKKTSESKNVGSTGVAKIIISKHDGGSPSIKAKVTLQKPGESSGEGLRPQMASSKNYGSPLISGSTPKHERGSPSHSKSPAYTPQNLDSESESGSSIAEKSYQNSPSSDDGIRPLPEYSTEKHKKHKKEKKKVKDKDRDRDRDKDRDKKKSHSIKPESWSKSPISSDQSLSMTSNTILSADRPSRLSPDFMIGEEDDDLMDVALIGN
UniProt O43524: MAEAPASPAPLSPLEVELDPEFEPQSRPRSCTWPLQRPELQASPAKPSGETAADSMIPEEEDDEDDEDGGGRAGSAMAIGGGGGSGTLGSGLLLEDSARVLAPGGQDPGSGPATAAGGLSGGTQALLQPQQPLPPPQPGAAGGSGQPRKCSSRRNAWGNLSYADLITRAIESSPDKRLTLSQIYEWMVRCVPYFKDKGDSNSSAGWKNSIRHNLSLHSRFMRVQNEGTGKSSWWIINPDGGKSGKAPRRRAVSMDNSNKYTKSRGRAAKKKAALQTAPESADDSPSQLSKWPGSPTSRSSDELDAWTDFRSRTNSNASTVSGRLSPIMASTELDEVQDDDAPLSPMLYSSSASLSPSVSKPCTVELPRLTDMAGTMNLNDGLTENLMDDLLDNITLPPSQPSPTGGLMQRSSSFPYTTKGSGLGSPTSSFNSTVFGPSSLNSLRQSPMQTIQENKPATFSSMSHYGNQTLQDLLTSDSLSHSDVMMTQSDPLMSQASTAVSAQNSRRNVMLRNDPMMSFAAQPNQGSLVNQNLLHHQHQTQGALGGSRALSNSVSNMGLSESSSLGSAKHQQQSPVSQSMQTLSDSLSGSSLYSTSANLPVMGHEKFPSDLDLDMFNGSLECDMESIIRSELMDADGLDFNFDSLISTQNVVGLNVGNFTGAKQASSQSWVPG

Tests used:
[1] = molecular target: T1, endogenous HA-Med23 (HA-Med23-KI HEK293T cells) (human (endogenous in HEK293T)) (UniProt Q9ULK4); assay: co-IP; lysates of HA-Med23-KI HEK293T cells immunoprecipitated with the HA antibody; immunoblot of endogenous partners
T1 sequence: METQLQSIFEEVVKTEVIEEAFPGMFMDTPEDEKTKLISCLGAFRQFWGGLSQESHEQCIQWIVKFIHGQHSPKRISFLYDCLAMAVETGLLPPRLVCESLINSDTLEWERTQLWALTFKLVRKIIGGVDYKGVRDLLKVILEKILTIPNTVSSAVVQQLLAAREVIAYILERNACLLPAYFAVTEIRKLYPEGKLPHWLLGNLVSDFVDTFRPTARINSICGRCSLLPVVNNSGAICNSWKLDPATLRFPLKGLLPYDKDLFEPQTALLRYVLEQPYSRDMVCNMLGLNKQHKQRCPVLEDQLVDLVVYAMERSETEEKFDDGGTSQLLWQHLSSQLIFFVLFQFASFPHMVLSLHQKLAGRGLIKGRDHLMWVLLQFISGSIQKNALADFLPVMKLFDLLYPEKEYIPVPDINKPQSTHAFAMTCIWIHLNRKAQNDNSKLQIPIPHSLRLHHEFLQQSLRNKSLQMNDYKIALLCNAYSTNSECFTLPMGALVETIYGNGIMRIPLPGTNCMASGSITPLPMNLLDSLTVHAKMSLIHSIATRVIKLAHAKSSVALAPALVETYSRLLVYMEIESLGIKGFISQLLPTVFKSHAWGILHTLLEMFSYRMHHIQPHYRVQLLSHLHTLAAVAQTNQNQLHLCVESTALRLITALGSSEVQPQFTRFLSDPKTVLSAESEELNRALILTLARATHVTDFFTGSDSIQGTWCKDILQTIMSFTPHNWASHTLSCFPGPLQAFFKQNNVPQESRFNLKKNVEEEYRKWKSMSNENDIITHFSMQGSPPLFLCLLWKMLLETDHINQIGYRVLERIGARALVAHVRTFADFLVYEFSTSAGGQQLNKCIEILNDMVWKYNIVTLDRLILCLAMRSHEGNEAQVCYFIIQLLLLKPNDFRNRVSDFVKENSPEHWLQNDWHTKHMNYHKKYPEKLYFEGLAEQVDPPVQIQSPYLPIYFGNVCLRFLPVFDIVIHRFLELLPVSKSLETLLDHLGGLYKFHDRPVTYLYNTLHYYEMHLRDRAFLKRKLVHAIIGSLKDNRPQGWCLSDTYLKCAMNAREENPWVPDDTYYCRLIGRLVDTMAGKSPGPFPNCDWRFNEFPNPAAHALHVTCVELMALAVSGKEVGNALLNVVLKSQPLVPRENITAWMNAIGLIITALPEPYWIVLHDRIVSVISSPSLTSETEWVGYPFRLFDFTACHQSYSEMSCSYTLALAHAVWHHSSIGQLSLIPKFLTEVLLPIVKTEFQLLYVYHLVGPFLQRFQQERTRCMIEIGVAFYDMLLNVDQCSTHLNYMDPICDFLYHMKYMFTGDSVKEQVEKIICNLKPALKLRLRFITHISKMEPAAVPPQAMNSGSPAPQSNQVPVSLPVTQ

[2] = molecular target: T1, endogenous HA-Med23 (HA-Med23-KI HEK293T cells) (human (endogenous in HEK293T)); assay: cross-linking + co-IP; HA-Med23-KI HEK293T cells treated with DSP (20uM); lysates immunoprecipitated with the HA antibody; immunoblot of endogenous Foxo3

Molecule: Mediator subunit CDK8 (from UniProt P49336 1-464)
- binding [1]: binds

B2: Mediator subunit Med16 (protein, UniProt Q9Y2X0 1-877)
chain: MCDLRRPAAGGMMDLAYVCEWEKWSKSTHCPSVPLACAWSCRNLIAFTMDLRSDDQDLTRMIHILDTEHPWDLHSIPSEHHEAITCLEWDQSGSRLLSADADGQIKCWSMADHLANSWESSVGSLVEGDPIVALSWLHNGVKLALHVEKSGASSFGEKFSRVKFSPSLTLFGGKPMEGWIAVTVSGLVTVSLLKPSGQVLTSTESLCRLRGRVALADIAFTGGGNIVVATADGSSASPVQFYKVCVSVVSEKCRIDTEILPSLFMRCTTDLNRKDKFPAITHLKFLARDMSEQVLLCASSQTSSIVECWSLRKEGLPVNNIFQQISPVVGDKQPTILKWRILSATNDLDRVSAVALPKLPISLTNTDLKVASDTQFYPGLGLALAFHDGSVHIVHRLSLQTMAVFYSSAAPRPVDEPAMKRPRTAGPAVHLKAMQLSWTSLALVGIDSHGKLSVLRLSPSMGHPLEVGLALRHLLFLLEYCMVTGYDWWDILLHVQPSMVQSLVEKLHEEYTRQTAALQQVLSTRILAMKASLCKLSPCTVTRVCDYHTKLFLIAISSTLKSLLRPHFLNTPDKSPGDRLTEICTKITDVDIDKVMINLKTEEFVLDMNTLQALQQLLQWVGDFVLYLLASLPNQGSLLRPGHSFLRDGTSLGMLRELMVVIRIWGLLKPSCLPVYTATSDTQDSMSLLFRLLTKLWICCRDEGPASEPDEALVDECCLLPSQLLIPSLDWLPASDGLVSRLQPKQPLRLQFGRAPTLPGSAATLQLDGLARAPGQPKIDHLRRLHLGACPTEECKACTRCGCVTMLKSPNRTTAVKQWEQRWIKNCLAVEGRGPDACVTSRASEEAPAFVQLGPQSTHHSPRTPRSLDHLHPEDRP
- binding [1]: binds

Further lines, results first:

- binding [1]: binds
Molecule: Mediator subunit Med1 (from UniProt Q15648 1-1581)

- binding [1]: binds
- binding [2]: binds
Molecule: endogenous Foxo3 (forkhead box O3) (from UniProt O43524 1-673)

- binding [1]: binds
B1: Mediator subunit Med24 (protein, UniProt O75448 1-989)
chain: MKVVNLKQAILQAWKERWSDYQWAINMKKFFPKGATWDILNLADALLEQAMIGPSPNPLILSYLKYAISSQMVSYSSVLTAISKFDDFSRDLCVQALLDIMDMFCDRLSCHGKAEECIGLCRALLSALHWLLRCTAASAERLREGLEAGTPAAGEKQLAMCLQRLEKTLSSTKNRALLHIAKLEEASSWTAIEHSLLKLGEILANLSNPQLRSQAEQCGTLIRSIPTMLSVHAEQMHKTGFPTVHAVILLEGTMNLTGETQSLVEQLTMVKRMQHIPTPLFVLEIWKACFVGLIESPEGTEELKWTAFTFLKIPQVLVKLKKYSHGDKDFTEDVNCAFEFLLKLTPLLDKADQRCNCDCTNFLLQECGKQGLLSEASVNNLMAKRKADREHAPQQKSGENANIQPNIQLILRAEPTVTNILKTMDADHSKSPEGLLGVLGHMLSGKSLDLLLAAAAATGKLKSFARKFINLNEFTTYGSEESTKPASVRALLFDISFLMLCHVAQTYGSEVILSESRTGAEVPFFETWMQTCMPEEGKILNPDHPCFRPDSTKVESLVALLNNSSEMKLVQMKWHEACLSISAAILEILNAWENGVLAFESIQKITDNIKGKVCSLAVCAVAWLVAHVRMLGLDEREKSLQMIRQLAGPLFSENTLQFYNERVVIMNSILERMCADVLQQTATQIKFPSTGVDTMPYWNLLPPKRPIKEVLTDIFAKVLEKGWVDSRSIHIFDTLLHMGGVYWFCNNLIKELLKETRKEHTLRAVELLYSIFCLDMQQVTLVLLGHILPGLLTDSSKWHSLMDPPGTALAKLAVWCALSSYSSHKGQASTRQKKRHREDIEDYISLFPLDDVQPSKLMRLLSSNEDDANILSSPTDRSMSSSLSASQLHTVNMRDPLNRVLANLFLLISSILGSRTAGPHTQFVQWFMEECVDCLEQGGRGSVLQFMPFTTVSELVKVSAMSSPKVVLAITDLSLPLGRQVAAKAIAAL
